Test in all cases: log2 fold change, soluble protein after heating vs DMSO (PISA); higher = thermal stabilisation; K562 lysate, 10 uM; active = over 0.2 and 3.5 SD of the protein, either way, in both replicates (recomputed)
Compound in assay [1]: NCC(=O)Nc1ccc(-n2nc(C(F)(F)F)cc2-c2ccc3c(ccc4ccccc43)c2)cc1
In a few lines:
(§1)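 K562 pellets were dounce-homogenised in PBS pH 7.4 containing 1 mM MgCl2, and the crude extract, at 1 mg/mL protein, was exposed to 10 μM compound for 30 min. Aliquots were heated for 3 min across 48°C-58°C, pooled, brought to 0.5% NP-40 at 4°C and spun at 21,000xg for 90 min, with the supernatant taken as soluble protein. TMTpro 16plex LC-MS/MS with equalised channel sums quantified that protein. Values are log-two fold changes in thermal stability relative to solvent controls, taken from duplicates.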

Sequences of proteins named here, by UniProt entry; tags and fusion partners are left off. A change or cut given only in a name is not applied to a line headed by its entry.
UniProt Q9Y3P9: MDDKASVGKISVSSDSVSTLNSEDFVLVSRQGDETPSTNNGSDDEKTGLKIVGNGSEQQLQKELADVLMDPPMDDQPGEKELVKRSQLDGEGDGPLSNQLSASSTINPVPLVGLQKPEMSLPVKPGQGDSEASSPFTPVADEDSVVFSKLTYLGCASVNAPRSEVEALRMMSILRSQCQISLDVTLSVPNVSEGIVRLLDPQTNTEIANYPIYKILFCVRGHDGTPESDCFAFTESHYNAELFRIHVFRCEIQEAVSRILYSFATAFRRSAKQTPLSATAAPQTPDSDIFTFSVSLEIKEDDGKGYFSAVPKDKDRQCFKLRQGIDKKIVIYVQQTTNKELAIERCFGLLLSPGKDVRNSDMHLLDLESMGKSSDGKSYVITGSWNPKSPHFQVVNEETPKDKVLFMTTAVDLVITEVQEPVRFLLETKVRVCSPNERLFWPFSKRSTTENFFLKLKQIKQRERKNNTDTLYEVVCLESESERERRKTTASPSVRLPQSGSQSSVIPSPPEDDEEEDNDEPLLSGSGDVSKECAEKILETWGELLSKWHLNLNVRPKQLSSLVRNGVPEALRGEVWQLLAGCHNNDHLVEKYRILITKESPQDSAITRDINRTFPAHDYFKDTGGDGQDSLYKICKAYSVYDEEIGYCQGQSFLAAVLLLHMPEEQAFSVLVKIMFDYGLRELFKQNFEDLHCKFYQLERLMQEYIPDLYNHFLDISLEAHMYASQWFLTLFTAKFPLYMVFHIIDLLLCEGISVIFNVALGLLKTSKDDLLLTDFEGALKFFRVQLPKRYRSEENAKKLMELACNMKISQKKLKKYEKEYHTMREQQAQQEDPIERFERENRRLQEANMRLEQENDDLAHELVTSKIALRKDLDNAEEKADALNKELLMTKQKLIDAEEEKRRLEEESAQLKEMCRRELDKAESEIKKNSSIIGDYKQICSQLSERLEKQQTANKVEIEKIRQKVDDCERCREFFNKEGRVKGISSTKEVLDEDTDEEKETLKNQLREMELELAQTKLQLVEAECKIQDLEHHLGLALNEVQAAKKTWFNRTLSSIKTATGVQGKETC
UniProt Q96S59, whole entry, looked up: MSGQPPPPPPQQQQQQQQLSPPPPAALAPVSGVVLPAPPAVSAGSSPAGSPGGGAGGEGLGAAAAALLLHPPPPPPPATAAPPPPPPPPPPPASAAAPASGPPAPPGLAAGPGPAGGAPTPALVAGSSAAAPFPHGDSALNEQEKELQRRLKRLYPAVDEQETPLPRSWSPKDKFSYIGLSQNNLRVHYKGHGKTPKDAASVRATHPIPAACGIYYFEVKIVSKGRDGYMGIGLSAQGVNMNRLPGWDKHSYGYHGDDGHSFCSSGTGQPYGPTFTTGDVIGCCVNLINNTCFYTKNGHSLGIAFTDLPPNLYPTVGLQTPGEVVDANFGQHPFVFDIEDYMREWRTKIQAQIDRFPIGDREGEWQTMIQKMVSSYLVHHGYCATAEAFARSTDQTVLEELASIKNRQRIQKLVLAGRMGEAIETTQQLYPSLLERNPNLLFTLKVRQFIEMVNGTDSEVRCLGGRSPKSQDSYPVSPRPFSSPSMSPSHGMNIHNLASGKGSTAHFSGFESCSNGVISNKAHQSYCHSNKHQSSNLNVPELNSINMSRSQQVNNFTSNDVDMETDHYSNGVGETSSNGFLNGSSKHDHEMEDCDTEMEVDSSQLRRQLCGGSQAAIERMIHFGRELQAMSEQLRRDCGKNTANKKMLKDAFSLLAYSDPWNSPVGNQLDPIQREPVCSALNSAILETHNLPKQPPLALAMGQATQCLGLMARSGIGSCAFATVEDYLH
UniProt P51148: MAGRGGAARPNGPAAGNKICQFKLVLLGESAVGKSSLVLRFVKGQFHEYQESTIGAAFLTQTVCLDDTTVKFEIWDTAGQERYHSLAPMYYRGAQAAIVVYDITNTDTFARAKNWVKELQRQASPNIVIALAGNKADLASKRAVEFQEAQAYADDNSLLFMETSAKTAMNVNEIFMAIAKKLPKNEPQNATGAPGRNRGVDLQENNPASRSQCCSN
UniProt P54727: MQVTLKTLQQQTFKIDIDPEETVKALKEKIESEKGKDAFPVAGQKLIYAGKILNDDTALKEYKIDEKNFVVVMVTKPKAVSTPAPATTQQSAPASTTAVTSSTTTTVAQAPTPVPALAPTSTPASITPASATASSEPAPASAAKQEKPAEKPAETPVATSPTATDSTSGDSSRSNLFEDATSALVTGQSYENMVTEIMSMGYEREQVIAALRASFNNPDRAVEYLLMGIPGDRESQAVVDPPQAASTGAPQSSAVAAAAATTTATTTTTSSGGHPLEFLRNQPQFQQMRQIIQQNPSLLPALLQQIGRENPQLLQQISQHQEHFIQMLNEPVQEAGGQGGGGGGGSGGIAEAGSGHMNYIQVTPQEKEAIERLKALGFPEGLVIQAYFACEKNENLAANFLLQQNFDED
UniProt O43502: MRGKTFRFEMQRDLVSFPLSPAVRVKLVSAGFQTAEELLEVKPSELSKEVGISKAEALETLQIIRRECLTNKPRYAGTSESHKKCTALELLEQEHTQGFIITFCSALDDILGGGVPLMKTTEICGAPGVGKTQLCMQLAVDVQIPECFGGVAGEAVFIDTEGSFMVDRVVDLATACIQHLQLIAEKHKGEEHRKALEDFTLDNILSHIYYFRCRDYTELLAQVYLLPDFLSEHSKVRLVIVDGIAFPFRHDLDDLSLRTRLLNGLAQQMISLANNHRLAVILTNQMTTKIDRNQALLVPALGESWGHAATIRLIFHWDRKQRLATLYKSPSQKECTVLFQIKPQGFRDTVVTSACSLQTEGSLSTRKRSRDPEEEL
UniProt P20340: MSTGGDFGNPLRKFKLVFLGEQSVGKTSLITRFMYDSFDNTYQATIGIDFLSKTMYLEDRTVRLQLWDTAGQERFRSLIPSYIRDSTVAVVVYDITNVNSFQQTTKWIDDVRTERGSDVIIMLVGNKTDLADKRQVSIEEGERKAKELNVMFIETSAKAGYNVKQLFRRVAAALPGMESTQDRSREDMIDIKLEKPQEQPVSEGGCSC
UniProt Q9ULC3: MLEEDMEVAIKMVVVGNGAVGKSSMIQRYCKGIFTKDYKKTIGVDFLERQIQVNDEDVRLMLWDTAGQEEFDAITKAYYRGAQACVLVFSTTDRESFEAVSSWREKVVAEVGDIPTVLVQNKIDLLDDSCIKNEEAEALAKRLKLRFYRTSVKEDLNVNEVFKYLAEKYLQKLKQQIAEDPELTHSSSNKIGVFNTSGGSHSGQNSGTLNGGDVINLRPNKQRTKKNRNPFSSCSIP
UniProt P20338: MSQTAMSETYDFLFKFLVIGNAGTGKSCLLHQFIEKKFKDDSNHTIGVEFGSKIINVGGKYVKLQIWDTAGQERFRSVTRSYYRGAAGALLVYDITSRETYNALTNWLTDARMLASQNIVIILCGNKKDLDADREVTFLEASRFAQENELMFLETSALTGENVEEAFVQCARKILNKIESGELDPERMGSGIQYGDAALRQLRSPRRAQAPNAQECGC

Compound in a further assay: O=C(CCCCCCC(=O)Nc1ccccc1)NO [vorinostat]
The essentials: as §1

Compound in another assay: O=C(O)c1ccc2c(c1)nc(Nc1cccc(Cl)c1)c1ccncc12 [silmitasertib]
In a few lines: as §1

Compound in assay [2]: O=C1NC(=O)C(c2cnc3ccccn23)=C1c1cn2c3c(cc(F)cc13)CN(C(=O)N1CCCCC1)CC2
The essentials:
as §1

Compound in the next assay: c1cn2cc(-c3ccc4cn[nH]c4c3)nc(Nc3ccc(N4CCOCC4)cc3)c2n1 [entospletinib]
In a few lines: as §1

This is one part of the list.

For RABGAP1 (UniProt Q9Y3P9), the log2 fold change in assay [1] is inactive: -0.006; with vorinostat, inactive: -0.038; with silmitasertib, inactive: -0.006; in assay [2], inactive: -0.004; with entospletinib, inactive: 0.01.

For the target RANBP9 (UniProt Q96S59), the log2 fold change is inactive: -0.005 in assay [1]; inactive: -0.129 with vorinostat; inactive: 0.017 in the assay with silmitasertib; inactive: -0.008 in assay [2]; inactive: -0.001 with entospletinib.

With RAB5C isoform 2 (UniProt P51148), the log2 fold change in assay [1] was inactive: 0.027; with vorinostat it was inactive: 0.057; with silmitasertib, inactive: -0.017; in assay [2], inactive: 0.01; with entospletinib, inactive: -0.039.

As to RAD23B (UniProt P54727), the log2 fold change in assay [1] was inactive: -0.007; with vorinostat it was inactive: 0.134; in the assay with silmitasertib, inactive: 0.002; in assay [2], inactive: 0.002; with entospletinib, inactive: 0.001.

In the case of RAD51C (UniProt O43502), the log2 fold change in assay [1] was inactive: 0.023; with vorinostat it was active: -0.386; in the assay with silmitasertib, inactive: -0.003; in assay [2], inactive: -0.015; with entospletinib, inactive: 0.065.

RAB6A isoform 4 (UniProt P20340): the log2 fold change in assay [1] was inactive: 0.118; in the assay with vorinostat it was inactive: 0.154; with silmitasertib, inactive: -0.027; in assay [2], inactive: -0.022; with entospletinib, inactive: -0.029.

For RAB23 (UniProt Q9ULC3), the log2 fold change in assay [1] was inactive: -0.036; with vorinostat, inactive: 0.048; in the assay with silmitasertib it was inactive: 0.007; in assay [2], inactive: -0.073; in the assay with entospletinib, inactive: 0.057.

For RAB4A (UniProt P20338), the log2 fold change was inactive: -0.045 in assay [1]; inactive: 0.138 in the assay with vorinostat; inactive: -0.007 with silmitasertib; inactive: -0.071 in assay [2]; inactive: 0 in the assay with entospletinib.

The record behind these values is the supplement of paper PMC10849652.
